The target in test [1] is GPR56, exogenous, in 293T cells (UniProt Q9Y653). Put plainly: co-IP; exogenous GPR56 and TGFBR1 in 293T cells; IP-lysis buffer, antibody at 4 °C, Magnetic Agarose Beads, Western blot. In general terms: In western blotting, separated proteins are transferred to a membrane and probed.
Test [2] deals with GPR56, endogenous in MHCC97H cells (human (endogenous in MHCC97H)) (UniProt Q9Y653). Put plainly: co-IP; endogenous GPR56 and TGFBR1 in MHCC97H cells, with or without TGF-β1 treatment for 1 h (TGF-β1 augmented the interaction); IP-lysis buffer, antibody at 4 °C, Magnetic Agarose Beads, Western blot.

The chains behind the UniProt entries cited, without tags or fusion partners. Residues count along the entry.
UniProt Q9Y653, residues 26-693: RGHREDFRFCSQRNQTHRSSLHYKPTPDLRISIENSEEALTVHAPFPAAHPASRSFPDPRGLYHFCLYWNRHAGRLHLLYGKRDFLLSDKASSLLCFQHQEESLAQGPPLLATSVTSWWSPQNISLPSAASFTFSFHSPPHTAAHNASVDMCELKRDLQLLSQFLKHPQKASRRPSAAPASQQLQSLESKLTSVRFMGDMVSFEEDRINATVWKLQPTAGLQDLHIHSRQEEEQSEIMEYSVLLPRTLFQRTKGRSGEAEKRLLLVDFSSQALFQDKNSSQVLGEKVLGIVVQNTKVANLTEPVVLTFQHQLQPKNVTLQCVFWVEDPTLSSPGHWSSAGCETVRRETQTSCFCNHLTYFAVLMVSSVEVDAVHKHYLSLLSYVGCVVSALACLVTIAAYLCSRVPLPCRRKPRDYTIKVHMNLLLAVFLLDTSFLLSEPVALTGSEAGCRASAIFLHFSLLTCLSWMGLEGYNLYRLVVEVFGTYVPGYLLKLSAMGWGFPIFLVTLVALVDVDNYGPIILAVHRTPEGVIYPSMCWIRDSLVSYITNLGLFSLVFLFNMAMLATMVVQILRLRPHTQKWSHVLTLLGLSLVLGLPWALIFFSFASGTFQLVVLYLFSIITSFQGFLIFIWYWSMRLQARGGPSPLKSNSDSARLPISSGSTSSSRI

These are yes or no findings as the source states them, for the method shown. Binding seen in cells or lysates may run through a third protein. Some entries that bind do so weakly or less than the wild type.

B1: TGFBR1, exogenous, in 293T cells (receptor, UniProt P36897 34-503)
chain: LQCFCHLCTKDNFTCVTDGLCFVSVTETTDKVIHNSMCIAEIDLIPRDRPFVCAPSSKTGSVTTTYCCNQDHCNKIELPTTVKSSPGLGPVELAAVIAGPVCFVCISLMLMVYICHNRTVIHHRVPNEEDPSLDRPFISEGTTLKDLIYDMTTSGSGSGLPLLVQRTIARTIVLQESIGKGRFGEVWRGKWRGEEVAVKIFSSREERSWFREAEIYQTVMLRHENILGFIAADNKDNGTWTQLWLVSDYHEHGSLFDYLNRYTVTVEGMIKLALSTASGLAHLHMEIVGTQGKPAIAHRDLKSKNILVKKNGTCCIADLGLAVRHDSATDTIDIAPNHRVGTKRYMAPEVLDDSINMKHFESFKRADIYAMGLVFWEIARRCSIGGIHEDYQLPYYDLVPSDPSVEEMRKVVCEQKLRPNIPNRWQSCEALRVMAKIMRECWYANGAARLTALRIKKTLSQLSQQEGIKM
As to B1, the binding result in test [1] is listed as “binds”.

B2: TGFBR1, endogenous in MHCC97H cells (receptor, UniProt P36897 34-503)
chain: B1 chain
With B2, the binding entry in test [2] is recorded as “binds”.

Values taken from publication PMC11445230.
